The series concerns normal bone marrow mononuclear cells. As to the kind of experiment: Long-term culture-initiating cell (LTC-IC) assay on stroma after pre-incubation. It is filed as cell-based, human. To be noted: colonies after pre-incubation with 50 uM for 5 hours. An excerpt:
The long-term BM culture system provides the means to investigate the proliferation and differentiation properties of primitive hematopoietic cells. To assess the long-term effects of CR4 on early progenitor cells the long-term culture-initiating cell (LTC-IC) assay was set up utilizing stromal microenvironment. Briefly, to obtain stromal cells bone marrow mononuclear cells were suspended in long-term culture (LTC) media (MyeloCult Stem Cell Technologies Inc.) supplemented with 10^−6 mol/L hydrocortisone sodium succinate (HSS; Sigma Aldrich Canada Ltd., Mississauga, Ont.,Canada). Approximately 1×10^7 cells were plated into 25 cm^2 tissue culture flasks (Becton Dickinson Labware, Franklin Lakes, N.J., USA) and incubated for 3 days at […] in a humidified atmosphere with 5% CO2 followed by incubation at 33° C. Cultures were re-fed weekly by replacing half of the medium. Following stromal confluency (3-6 weeks) cells were trypsinized and irradiated (1,500 cGy) using a Cs source. Stromal cells were again replated in LTC media at a concentration of 0.5-1.0×10^6 cells per 35 mm culture dishes (Nunc-Gibco BRL, Gaithersburg, Md.). Subcultured stroma was incubated for 2-3 days (at greater than 70% confluency) prior to co-culturing with fresh non-adherent overlay of hematopoietic cells. […]

The text below walks through data of US20050014690A1, “Styryl acrylonitrile compounds and their use to promote myelopoiesis” (priority 2001, published 2005).

With `N#C/C(=C\C=C\c1ccc(O)c(O)c1)C(=O)NCc1ccccc1` [CR4, (E,E)-2-(Benzylaminocarbonyl)-3-(3,4-dihydroxystyryl)acrylonitrile], the colony morphology entry is “normal morphology” and the “cytokine growth dependency of colonies” value is “demonstrated cytokine growth dependency”.
